Source: PubChem BioAssay AID2685 (National Center for Advancing Translational Sciences (NCATS), 2010)
The list shows a part of the results. The main result of the screen is listed elsewhere. These columns were measured beside it and carry no call. Compounds called inactive in the main read-out are mostly missing here. Words in brackets tell the shape of the fitted curve; partial curves, single points and poor fits give uncertain potencies.

Test: qHTS Assay for Lipid Storage Modulators in Drosophila S3 Cells;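 for cell number change: cells counted by Cell Tracker Red CMTPX staining in the red channel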
Conditions: BODIPY lipid droplet fluorescence, 18-24 h; for cell number change: measured here: cell count max response, cells fed with added oleic acid
Method in brief: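 Drosophila S3 cells loaded with oleic acid (400 uM, as added) and compounds at several concentrations; lipid droplets imaged by 488-nm laser-scanning cytometry, 500–530 nm intensity and object ratio to cell channel. Percent activity normalized to 20 uM Triacsin C.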

[1] = measured here: lipid fluorescence (Fed channel) AC50, cells fed with added oleic acid
[2] = measured here: cell number channel AC50, cells fed with added oleic acid

## O=C(COc1ccccc1)Nc1ccc(S(=O)(=O)N2CCOCC2)cc1
  cell number change: 10.5%
[1]
  AC50: 16.4 µM [falling, single point]

## CCc1ccc2nc3nc(C)cc(C)c3c(N)c2c1
  cell number change: -1.27%
[1]
  AC50: 0.146 µM [falling, full curve, poor fit]

## CCC(C)(C)n1nnnc1C(C(C)C)N(CCN1CCOCC1)Cc1cc2cccc(C)c2[nH]c1=O (configuration not stated)
  cell number change: 39.9%
[2]
  AC50: 1.03 µM [rising, full curve, poor fit]
[1]
  AC50: 2.91 µM [rising, partial curve]

## CCN(CC)CCCNC(=O)Cn1ccc2ccccc2c1=O
  cell number change: -29.6%
[2]
  AC50: 0.82 µM [falling, full curve]
[1]
  AC50: 0.231 µM [falling, full curve]

## Cc1occc1C(=O)NNS(=O)(=O)c1ccc([N+](=O)[O-])cc1
  cell number change: 1.3%
[1]
  AC50: 18.4 µM [falling, partial curve]

## Cc1nn(Cc2ccccc2)c(C)c1C(=O)Nc1ccc(N2CCOCC2)cc1
  cell number change: 51.3%
[2]
  AC50: 29.1 µM [rising, single point]
[1]
  AC50: 29.1 µM [rising, single point]

## CC(Sc1nccn1C)C(=O)NC1(C#N)CCCCC1 (configuration not stated)
  cell number change: 2.05%
[1]
  AC50: 29.1 µM [rising, single point]

## N#C/C(=C1\C(=O)Nc2c(Cl)cc(Cl)cc21)c1nnc2n1CCCCC2
  cell number change: -63.2%
[2]
  AC50: 16.4 µM [falling, single point]

## Cn1c(N)c(C(=O)COC(=O)C2CCCN2C(=O)c2cccs2)c(=O)n(C)c1=O (configuration not stated)
  cell number change: 32.4%

## COc1ccc(/C=C(\C#N)C(=O)OCC(=O)NC2CC2)cc1
  cell number change: 60.7%

## Cc1ccccc1N1CC(C(=O)Nc2ccc(S(=O)(=O)N3CCCC3)cc2)CC1=O (configuration not stated)
[1]
  AC50: 2.91 µM [falling, single point]

## Cc1nn(C(C)C(=O)N2CCOCC2)c(=O)c2nn(-c3ccccc3)c(C)c12 (configuration not stated)
  cell number change: 19.2%
[1]
  AC50: 29.1 µM [rising, single point]

## CN1CCc2c(sc(NC(=O)C3COc4ccccc4O3)c2C(N)=O)C1 (configuration not stated)
  cell number change: -4.96%
[1]
  AC50: 29.1 µM [falling, single point]

## NC(=O)c1ccsc1NC(=O)COC(=O)COc1ccc(C=O)cc1
  cell number change: 4.45%
[2]
  AC50: 6.51 µM [falling, single point]

## Cc1ccc(S(=O)(=O)/N=C(\CN2CCOCC2)N2CCOCC2)cc1
  cell number change: -0.0806%
[1]
  AC50: 6.51 µM [falling, single point]

## CCN(CC(=O)Nc1ccc(Cl)c(S(=O)(=O)N(C)C)c1)CC(=O)NC(C)C
[1]
  AC50: 0.58 µM [rising, single point]

## O=C(CCN1C(=O)c2ccccc2C1=O)C1=NN[C@@H]2C(=O)N(c3ccc(F)cc3)C(=O)[C@H]12
  cell number change: 0.549%

## Cc1[nH]c2ccccc2c1C(=O)C(C)OC(=O)c1ccccc1NCCO (configuration not stated)
  cell number change: -0.227%
[2]
  AC50: 0.013 µM [rising, full curve, poor fit]
[1]
  AC50: 0.92 µM [rising, partial curve]

## O=C(O)COCC(=O)Nc1ccc(Oc2ncnc3cc(Cl)ccc23)nc1
  cell number change: 9.29%

## Cc1ccc(CNC(=O)c2ccc(N3CCC4(CC3)CC(c3cccc(Br)c3)=NO4)c([N+](=O)[O-])c2)cc1
  cell number change: -8.52%
[1]
  AC50: 3.66 µM [falling, single point]

## COc1ccc(C(=O)Nc2cccc(C(=O)O)c2)cc1S(=O)(=O)N1CCCC1
  cell number change: 3.96%
[1]
  AC50: 0.651 µM [rising, full curve]

## Cn1c(=O)c2c3c(sc2n2cnnc12)CCC3
  cell number change: -17.6%

## CCOC(=O)c1sc(NC(=O)C2CC(=O)N(c3ccccc3OC)C2)nc1C (configuration not stated)
  cell number change: 32.8%
[2]
  AC50: 29.1 µM [rising, single point]
[1]
  AC50: 23.1 µM [rising, single point]

## CCN(c1ccccc1)S(=O)(=O)c1ccc(F)cc1
  cell number change: 5.34%

## CCOC(=O)c1ccc(NC(=S)Nc2ccc(C)cc2)cc1
  cell number change: 15.9%
[2]
  AC50: 0.82 µM [rising, full curve, poor fit]
[1]
  AC50: 29.1 µM [falling, single point]

## CC(C)c1ccc(OCC(=O)Nc2cccc(C(=O)Nc3ccccc3C(=O)O)c2)cc1
  cell number change: 31.4%

## Cc1ccc(S(=O)(=O)N2CCN(C(=O)COc3ccc(Br)cc3)CC2)cc1
  cell number change: -17.5%
[1]
  AC50: 0.0058 µM [falling, full curve, poor fit]

## CCN(Cc1ccccc1)c1ccc(/C=N/NC(=O)c2cccc(S(=O)(=O)N3CCOCC3)c2)cc1
[1]
  AC50: 2.31 µM [rising, single point]

## Cc1cc(C)cc(NC(=O)C2C3C=CC4(O3)C2C(=O)N(CCCN2CCCC2)C4C(=O)NC2CCCC(C)C2C)c1 (configuration not stated)
  cell number change: 110%
[2]
  AC50: 7.31 µM [rising, partial curve]
[1]
  AC50: 6.51 µM [falling, single point]

## CCOC(=O)c1ccccc1N1C(=O)C2Sc3[nH]c(=O)sc3C(/C=C/c3ccccc3)C2C1=O (configuration not stated)
  cell number change: 10%
[1]
  AC50: 0.58 µM [falling, single point]

## COc1cc(/C=C/C(=O)OCC(=O)c2c(N)n(C)c(=O)n(C)c2=O)ccc1O
  cell number change: -9.24%

## Cc1cc(-c2ccccc2)n2ncc(C#N)c2n1
  cell number change: 17.5%
[1]
  AC50: 16.4 µM [rising, single point]

## O=C(NCc1cccnc1)c1ccc(N2CCOCC2)c([N+](=O)[O-])c1
  cell number change: -11.2%
[2]
  AC50: 0.146 µM [falling, full curve]

## CCc1ccc(CNC(=O)CN2C(=O)COc3ccccc32)cc1
  cell number change: 2.57%
[1]
  AC50: 4.11 µM [falling, partial curve, poor fit]

## Cc1cc(NC(=O)COC(=O)[C@H](C)NC(=O)c2ccccc2)no1
  cell number change: 7.47%
[1]
  AC50: 0.116 µM [falling, full curve, poor fit]

## COc1cccc(C(=O)Nc2ccc(-c3nc4ccccc4o3)c(O)c2)c1
[2]
  AC50: 2.06 µM [falling, partial curve]
[1]
  AC50: 2.06 µM [falling, partial curve]

## O=S(=O)(c1cccc(-c2csc(-c3cccnc3)n2)c1)N1CCCCC1
  cell number change: 9.22%
[2]
  AC50: 0.259 µM [rising, full curve]
[1]
  AC50: 0.259 µM [rising, full curve]

## COc1ccc(C(C(=O)NC2CCCCC2)N(C(=O)CCCC(=O)Nc2ccccn2)c2ccc3c(c2)OCCO3)cc1 (configuration not stated)
  cell number change: 9.77%
[1]
  AC50: 32.6 µM [rising, single point]

## C/C(=C\C(=O)c1ccc(Br)cc1)NCc1ccccc1
  cell number change: 23.8%
[1]
  AC50: 0.0411 µM [rising, full curve, poor fit]

## Cc1ccc(N(C(=O)c2ccccc2Cl)C2=NC(C)CS2)c(C)c1 (configuration not stated)
  cell number change: -3.41%
[2]
  AC50: 0.82 µM [falling, single point]

## Cc1c(C(=O)Nc2ccc(F)cc2)oc2ccc(S(=O)(=O)N3CC(C)CC(C)C3)cc12 (configuration not stated)
[1]
  AC50: 6.51 µM [rising, single point]

## CN(C)CCN(C(=O)c1ccc(S(=O)(=O)N(C)CC2CCCO2)cc1)c1nc2cc3c(cc2s1)OCO3 (configuration not stated)
  cell number change: 24.6%
[1]
  AC50: 3.26 µM [falling, single point]

## CC1CCN(C(=O)c2ccc3ccccc3c2)CC1
  cell number change: 2.21%
[1]
  AC50: 10.3 µM [falling, partial curve]

## COC(=O)c1ncn(C2OC(COC(C)=O)C(OC(C)=O)C2OC(C)=O)n1 (configuration not stated)
  cell number change: 0.244%
[1]
  AC50: 0.0146 µM [falling, full curve, poor fit]

## O=C(Nc1nc2ccccc2n1CCN1CCOCC1)c1ccc(COc2ccccc2Br)o1
  cell number change: 8.47%
[1]
  AC50: 0.116 µM [rising, full curve, poor fit]

## COC(=O)[C@@H]1C(c2c(OC)cc(OC)cc2OC)=NO[C@H]1C(=O)OC
  cell number change: -3.37%
[1]
  AC50: 0.0731 µM [rising, full curve, poor fit]

## c1ccc(Cc2nnc(N3CCOCC3)c3ccccc23)cc1
[2]
  AC50: 0.731 µM [rising, full curve]
[1]
  AC50: 0.58 µM [rising, single point]

## CCc1ccc(CN2CCC(n3nccc3NC(=O)c3ccc4c(c3)OCO4)CC2)cc1
  cell number change: 25.7%
[1]
  AC50: 0.58 µM [rising, single point]

## Cc1ccccc1S(=O)(=O)Cc1ccc(C(=O)N(C)C2CCCCC2)o1
[1]
  AC50: 11.6 µM [falling, partial curve, poor fit]

## CCCSc1nc(C)cc(C)c1S(C)(=O)=O
  cell number change: 13.5%

## CCOc1ccc(-c2n[nH]c(=S)o2)cc1
  cell number change: 60.6%
[2]
  AC50: 0.146 µM [rising, full curve, poor fit]
[1]
  AC50: 0.116 µM [rising, full curve, poor fit]

## CN(c1ccccc1)S(=O)(=O)c1cccc(C(=O)NNC(=O)c2ccncc2)c1
[2]
  AC50: 1.64 µM [rising, partial curve, poor fit]
[1]
  AC50: 1.3 µM [rising, partial curve]

## CCSc1nnc(NC(=O)C(CC)Oc2ccccc2)s1 (configuration not stated)
  cell number change: -9.82%

## Cn1c(CNC(=O)c2ccco2)nnc1SCC(=O)Nc1ccc(Cl)cc1
  cell number change: 68.3%
[2]
  AC50: 20.6 µM [rising, partial curve]

## CC(C)CCN(C(=S)Nc1cccc(F)c1)C1CCN(C(C)C)CC1
  cell number change: -10.1%
[2]
  AC50: 3.26 µM [falling, partial curve]
[1]
  AC50: 6.51 µM [falling, single point]

## O=C(NCc1ccco1)NC12CC3CC(CC(C3)C1)C2
  cell number change: 14.1%
[1]
  AC50: 29.1 µM [rising, single point]

## CCn1nc(C)cc1C(=O)N(C)C1CCCN(Cc2ccccc2F)C1 (configuration not stated)
  cell number change: 13.8%
[2]
  AC50: 6.51 µM [rising, single point]
[1]
  AC50: 2.06 µM [rising, partial curve, poor fit]

## COc1cccc(C2C(C#N)=C(N)Oc3cc(C)n(Cc4ccco4)c(=O)c32)c1 (configuration not stated)
  cell number change: 0.628%
[1]
  AC50: 11.6 µM [rising, single point]
